Measurements reported in PubChem BioAssay AID1259405 (NCATS, 2018)
The whole screen tested about 50,000 reagents; this is a random part of them. About 4,000 of them (8%) were called active. 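Mouse siRNA library applied to hamster cells; one well for each siRNA.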 Entries without a mark were called inactive. The numbers tell different reagents against one gene apart.

Screen: 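Mouse-designed siRNAs used to find CHO productivity engineering targets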 (primary screen)
Cells: Chinese hamster CHO-K1 ovary cells with stable secreted eGFP expression
Reagents: single siRNA against mouse genes, 0.8 pmol siRNA per well (2 µl of 400 nM stock)
Time to read-out: 3 days
Measurement: 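Per-well intracellular GFP measured by laser scanning cytometry, plus viability from ATP luminescence, each relative to plate median of non-targeting control wells, in %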
Direction: GFP, % of control: higher = more GFP per well, higher productivity; viability (ATP), % of control: higher = more viable cells (more ATP)
Hit rule: 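Called active when intracellular GFP, relative to negative control, is at or above 120%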

Klf7 #1 gave GFP, % of control 61.6; viability (ATP), % of control 99.
Knock-down of Klf7 #2 gave: GFP, % of control 65.8; viability (ATP), % of control 76.3.
Knock-down of Klf7 #3 gave: GFP, % of control 57.6; viability (ATP), % of control 85.1.
Prss52 #1 showed GFP, % of control 85.8; viability (ATP), % of control 85.7.
With knock-down of Prss52 #2, the screen gave GFP, % of control 103; viability (ATP), % of control 73.
Prss52 #3 showed GFP, % of control 80.3; viability (ATP), % of control 95.5.
For Drc3 #1 the deposit lists GFP, % of control 68.8; viability (ATP), % of control 81.5.
Drc3 #2 gave GFP, % of control 73.8; viability (ATP), % of control 55.6.
For Drc3 #3, the entry reads GFP, % of control 102; viability (ATP), % of control 99.4.
For Cbln3 #1, the values are GFP, % of control 53.5; viability (ATP), % of control 43.6.
Depletion of Cbln3 #2 came out at: GFP, % of control 61.7; viability (ATP), % of control 68.3.
Knock-down of Cbln3 #3 came out at: GFP, % of control 48.7; viability (ATP), % of control 62.4.
Knock-down of Skint3 #1 gave: GFP, % of control 61.3; viability (ATP), % of control 63.5.
Skint3 #2 scored GFP, % of control 85.3; viability (ATP), % of control 58.8.
Knock-down of Skint3 #3 gave: GFP, % of control 65.5; viability (ATP), % of control 82.
Uqcr10 #1 scored GFP, % of control 81.9; viability (ATP), % of control 112.
Silencing of Uqcr10 #2 came out at: GFP, % of control 88.6; viability (ATP), % of control 73.9.
Depletion of Uqcr10 #3 gave: GFP, % of control 40.7; viability (ATP), % of control 36.4.
Knock-down of Trav7d-6 #1 gave: GFP, % of control 53.4; viability (ATP), % of control 70.2.
Trav7d-6 #2 gave GFP, % of control 39.6; viability (ATP), % of control 46.4.
Against Trav7d-6 #3, the values are GFP, % of control 95.5; viability (ATP), % of control 129.
Art5 #1 gave GFP, % of control 99.9; viability (ATP), % of control 70.8.
Silencing of Art5 #2 came out at: GFP, % of control 86.5; viability (ATP), % of control 154.
Silencing of Art5 #3 resulted in: GFP, % of control 98.4; viability (ATP), % of control 83.3.
For Rspry1 #1, the entry reads GFP, % of control 66.9; viability (ATP), % of control 86.1.
Knock-down of Rspry1 #2 gave: GFP, % of control 58; viability (ATP), % of control 50.5.
For Rspry1 #3 the deposit lists GFP, % of control 82.5; viability (ATP), % of control 126.
With knock-down of Magea9 #1, the screen gave GFP, % of control 54.9; viability (ATP), % of control 87.4.
Depletion of Magea9 #2 resulted in: GFP, % of control 48.7; viability (ATP), % of control 52.6.
After knock-down of Magea9 #3, the screen gave GFP, % of control 169 (active); viability (ATP), % of control 154.
Silencing of Krtap4-16 #1 came out at: GFP, % of control 73.8; viability (ATP), % of control 61.
Against Krtap4-16 #2, the entry reads GFP, % of control 45.7; viability (ATP), % of control 55.6.
Krtap4-16 #3 scored GFP, % of control 103; viability (ATP), % of control 73.7.
Silencing of Spaca4 #1 resulted in: GFP, % of control 83.1; viability (ATP), % of control 93.
After knock-down of Spaca4 #2 the results were GFP, % of control 77.7; viability (ATP), % of control 62.7.
Against Spaca4 #3, the values are GFP, % of control 68.7; viability (ATP), % of control 71.1.
Silencing of Anapc4 #1 resulted in: GFP, % of control 67.7; viability (ATP), % of control 66.1.
Anapc4 #2 scored GFP, % of control 70.4; viability (ATP), % of control 52.
Anapc4 #3 gave GFP, % of control 92.9; viability (ATP), % of control 92.1.
Against Praf2 #1, the values are GFP, % of control 96.7; viability (ATP), % of control 75.7.
Silencing of Praf2 #2 gave: GFP, % of control 98.3; viability (ATP), % of control 58.9.
Depletion of Praf2 #3 resulted in: GFP, % of control 55; viability (ATP), % of control 68.6.

Reagents above called active, once more:
Magea9 #3 | GFP, % of control = 169 (active); viability (ATP), % of control = 154
